Experimental data as given in patent US20100290984A1 (DUKE UNIVERSITY, published 2010).
These are yes or no findings as the source states them, for the method shown. Some binding calls cover weakened binding; strength is not graded here.

By UniProt entry, the sequences of proteins in these tests, tags left out.
UniProt O15438: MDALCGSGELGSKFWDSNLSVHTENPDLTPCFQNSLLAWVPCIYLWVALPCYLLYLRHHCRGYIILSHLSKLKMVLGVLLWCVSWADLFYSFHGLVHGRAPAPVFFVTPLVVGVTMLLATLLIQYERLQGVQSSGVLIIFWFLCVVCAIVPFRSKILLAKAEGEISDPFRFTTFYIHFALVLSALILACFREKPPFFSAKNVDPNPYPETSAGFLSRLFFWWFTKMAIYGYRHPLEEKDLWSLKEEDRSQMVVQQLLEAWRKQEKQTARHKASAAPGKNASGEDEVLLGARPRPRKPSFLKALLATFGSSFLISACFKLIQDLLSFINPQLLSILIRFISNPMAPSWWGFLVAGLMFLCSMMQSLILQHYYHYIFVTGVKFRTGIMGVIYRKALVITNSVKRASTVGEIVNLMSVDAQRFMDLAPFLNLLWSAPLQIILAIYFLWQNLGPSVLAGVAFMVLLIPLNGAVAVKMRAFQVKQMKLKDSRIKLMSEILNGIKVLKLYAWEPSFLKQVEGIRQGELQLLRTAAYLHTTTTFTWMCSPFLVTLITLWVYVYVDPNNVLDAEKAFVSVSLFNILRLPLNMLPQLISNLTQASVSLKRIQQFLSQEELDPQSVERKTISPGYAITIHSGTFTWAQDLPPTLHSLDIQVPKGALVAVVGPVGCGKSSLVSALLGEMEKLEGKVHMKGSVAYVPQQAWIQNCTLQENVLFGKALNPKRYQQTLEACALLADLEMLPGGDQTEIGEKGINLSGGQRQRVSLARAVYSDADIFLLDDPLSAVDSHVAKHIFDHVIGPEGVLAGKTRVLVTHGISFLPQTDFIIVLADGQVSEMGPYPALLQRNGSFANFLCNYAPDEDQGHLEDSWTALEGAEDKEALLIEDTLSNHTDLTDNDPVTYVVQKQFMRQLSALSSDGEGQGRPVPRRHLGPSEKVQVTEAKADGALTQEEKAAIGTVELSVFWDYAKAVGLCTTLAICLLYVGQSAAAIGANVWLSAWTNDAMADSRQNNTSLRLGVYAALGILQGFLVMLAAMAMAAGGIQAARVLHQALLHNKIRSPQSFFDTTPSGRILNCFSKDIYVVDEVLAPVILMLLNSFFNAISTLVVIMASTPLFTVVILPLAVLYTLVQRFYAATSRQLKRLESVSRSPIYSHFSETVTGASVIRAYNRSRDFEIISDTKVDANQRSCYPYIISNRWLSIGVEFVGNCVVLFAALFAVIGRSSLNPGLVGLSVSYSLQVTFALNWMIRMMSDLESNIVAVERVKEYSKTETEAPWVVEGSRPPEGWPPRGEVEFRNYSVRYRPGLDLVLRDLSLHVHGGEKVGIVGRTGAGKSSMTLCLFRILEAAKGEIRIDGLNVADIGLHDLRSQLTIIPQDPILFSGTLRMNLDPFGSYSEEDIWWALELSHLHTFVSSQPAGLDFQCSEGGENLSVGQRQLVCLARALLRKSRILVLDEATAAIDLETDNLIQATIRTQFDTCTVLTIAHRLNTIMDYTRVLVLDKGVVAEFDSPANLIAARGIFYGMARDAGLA

What was measured:
[1] = biological target: human multidrug resistance protein 3 (MRP3) (human) (UniProt O15438); assay: indirect flow cytometric analysis (FACS)
[2] = biological target: human multidrug resistance protein 3 (MRP3) (human) (UniProt O15438); assay: indirect flow cytometry on MRP3-expressing glioma cells
[3] = biological target: human multidrug resistance protein 3 (MRP3) (human) (UniProt O15438); assay: indirect flow cytometry on D247MG and D54MG cells, anti-His-FITC

Measured: binding

B1: PepII-89 scFv (scFv)
scFv: QVQLVQSGGGVVQPGRSLRLSCAASGFTFSSYGMHWVRQDPGKGLMWVSSISTDGSATKYADSVKGRFTISRDNAKNTVSLQMNSLRAEDTAVYYCVGGFLGWWGQGTLVTVSSGGGGSGGGGSGGGGSEIVLTQSPATLSLSPGERATLSCRASQSVGGSYLAWYQQKPGQAPRLLIYGASRRATGIPARFSGSGSGTDFTLTISSLQPEDFASYFCQQTNTFPLTFGGGTKVEIKRTVAAPTAAA
notes: also called anti-MRP3 PepII-89scFv; not shown: Myc and hexahistidine tags from the pET 22(+) vector, at the C terminus
binds: [1] | [2] | [3]
